Patent publication US11208410B2, “Heterocycle-bound condensed heterocyclic compound or salt thereof, agricultural and horticultural insecticide comprising the compound, and method for using the insecticide” (Nihon Nohyaku Co., Ltd., priority 2016, dated 2021)
Some of these results come from one statement about several compounds together.

Test system: Myzus persicae
Assay: Test for control effect on Myzus persicae (foliar application to potted Chinese cabbage)
Type: in vivo
Conditions: 500 ppm, 6 days after application

SMILES: CCS(=O)(=O)c1cc(-c2noc(C(F)(F)F)n2)cnc1-c1nc2cc(C(F)(F)C(F)(F)F)nnc2n1C [Compound 1-41, 3-{2-(3-Methyl-6-pentafluoroethyl-3H-imidazo[4,5-C]pyridazin-2-yl)-3-(ethylsulfonyl)pyridin-5-yl}-5-trifluoromethyl-1,2,4-oxadiazole]
- control effect (control rate), activity level: A (the control rate is 100%)

SMILES: CCS(=O)(=O)c1cc(-c2nc(-c3ccccc3)no2)cnc1-c1nc2cc(C(F)(F)C(F)(F)F)nnc2n1C [Compound 2-56, 5-{2-(3-Methyl-6-pentafluoroethyl-3H-imidazo[4,5-C]pyridazin-2-yl)-3-(ethylsulfonyl)pyridin-5-yl}-3-phenyl-1,2,4-oxadiazole]
- control effect (control rate), activity level: A (the control rate is 100%)
